Data published in patent publication US12616753B2, “HSP70 inhibitors and methods of using same” (THE WISTAR INSTITUTE, priority 2020, dated 2026).

System: 1205Lu melanoma cells
Assay: SILAC proteomics of isolated mitochondria
Type: cell-based, human
Details: 1 μM, six hours

c1ccc(-c2cn3nc(CCCCCC[P+](c4ccccc4)(c4ccccc4)c4ccccc4)sc3n2)cc1 [AP-4-139B, Triphenyl(6-(6-phenylimidazo[2,1-b][1,3,4]thiadiazol-2-yl)hexyl)phosphonium bromide]
mitochondrial proteins downregulated: 462 proteins
mitochondrial proteins downregulated at least 3-fold: 125 proteins
proteins with >10-fold decreased abundance in the mitochondria: fourteen
